Values quoted from earlier work as cited in EP1857450A1, “Novel enantiomeric compounds for treatment of cardiac arrhythmias and methods of use” (Aryx Therapeutics, priority 1999, dated 2001).

Conditions: share of the time pulmonary toxicity is fatal; cited from earlier work

SMILES: CCCCc1oc2ccccc2c1C(=O)c1cc(I)c(OCCN(CC)CC)c(I)c1 [amiodarone]
- pulmonary toxicity fatal: 10%
